{
  "source": "patent US20250282881A1",
  "binders": {"B1": {"name": "EM1007-44c (antibody, human IgG1, V domains shown)", "VH": "QVQLQQSGPELVKPGASVTISCKASGHAFSSSWMNWVKQRPGKGLEWIGRIYPGDEITNYNGKFKDKATLTADKSSSTAYMQLSSLTFEDSAVYFCARDLLMPYWGQGTLVTVSA", "VL": "DIVMTQTAFSNPVTLGTSASISCRSSKSLLYSNGITYLYWYLQKPGQSPHLLIYQMSNLAPGVPDRFSSSGSGTDFTLRISRVEAEDVGIYYCAQNLELPFTFGSGTKLEIK"}},
  "target": "cyno OX40 on cells (CHO-K1-cOX40) (cyno)",
  "assay": "FACS on CHO-K1-cOX40 cells",
  "note": "Results are given in words; binding and its absence hold for the method and conditions named. Binding can be weak; no strength is given.",
  "data": [
    {"binder": "B1", "values": [
      {"measurement": "binding", "result": "binds"}
    ]}
  ]
}
